The target in experiment [1] is STIM1-GFP (human STIM1, NP_003147.2) (human) (UniProt Q13586). The experiment in a line: co-IP; GFP-tagged STIM1 pulled down with GFP-Trap beads from 1 mg whole cell lysate of STIM1-KO HEK293 cells (for XPO1: 0.25 mg nuclear lysate), co-precipitated endogenous proteins by immunoblot; GFP only as negative control. In general terms: Immunoblotting shows a protein as a band on a membrane.

The chains behind the UniProt entries cited, without tags or fusion partners. Where a name states a change or a piece, a line headed by the entry shows the natural chain unless it says otherwise. A line that says so, or that is headed by a name, gives the form on record, which may keep a tag or linker. Residues count along the entry.
UniProt Q13586: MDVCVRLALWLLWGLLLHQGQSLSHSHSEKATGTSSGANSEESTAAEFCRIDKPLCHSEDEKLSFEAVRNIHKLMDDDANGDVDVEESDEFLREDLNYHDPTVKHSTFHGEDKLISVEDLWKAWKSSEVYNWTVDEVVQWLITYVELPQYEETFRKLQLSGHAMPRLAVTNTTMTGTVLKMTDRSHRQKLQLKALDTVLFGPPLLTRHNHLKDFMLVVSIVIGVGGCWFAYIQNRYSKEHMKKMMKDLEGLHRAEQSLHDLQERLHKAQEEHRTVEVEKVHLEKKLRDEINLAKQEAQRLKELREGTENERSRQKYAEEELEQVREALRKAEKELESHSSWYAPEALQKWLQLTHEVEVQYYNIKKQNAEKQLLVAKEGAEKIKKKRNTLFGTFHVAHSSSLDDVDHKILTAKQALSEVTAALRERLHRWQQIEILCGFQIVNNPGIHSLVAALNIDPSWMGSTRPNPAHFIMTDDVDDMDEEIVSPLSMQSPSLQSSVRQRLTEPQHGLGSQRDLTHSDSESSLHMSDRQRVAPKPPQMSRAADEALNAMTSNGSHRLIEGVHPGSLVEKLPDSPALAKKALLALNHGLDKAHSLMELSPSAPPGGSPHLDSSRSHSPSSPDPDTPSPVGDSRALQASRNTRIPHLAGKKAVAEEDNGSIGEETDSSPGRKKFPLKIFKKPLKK
endogenous STIM1 (human (endogenous in HEK293)): residues 23-685 of Q13586
STIM1(Δ551–685)-GFP: residues 23-550 of Q13586
STIM1(382AIAAAA387)-GFP (Q13586, form named): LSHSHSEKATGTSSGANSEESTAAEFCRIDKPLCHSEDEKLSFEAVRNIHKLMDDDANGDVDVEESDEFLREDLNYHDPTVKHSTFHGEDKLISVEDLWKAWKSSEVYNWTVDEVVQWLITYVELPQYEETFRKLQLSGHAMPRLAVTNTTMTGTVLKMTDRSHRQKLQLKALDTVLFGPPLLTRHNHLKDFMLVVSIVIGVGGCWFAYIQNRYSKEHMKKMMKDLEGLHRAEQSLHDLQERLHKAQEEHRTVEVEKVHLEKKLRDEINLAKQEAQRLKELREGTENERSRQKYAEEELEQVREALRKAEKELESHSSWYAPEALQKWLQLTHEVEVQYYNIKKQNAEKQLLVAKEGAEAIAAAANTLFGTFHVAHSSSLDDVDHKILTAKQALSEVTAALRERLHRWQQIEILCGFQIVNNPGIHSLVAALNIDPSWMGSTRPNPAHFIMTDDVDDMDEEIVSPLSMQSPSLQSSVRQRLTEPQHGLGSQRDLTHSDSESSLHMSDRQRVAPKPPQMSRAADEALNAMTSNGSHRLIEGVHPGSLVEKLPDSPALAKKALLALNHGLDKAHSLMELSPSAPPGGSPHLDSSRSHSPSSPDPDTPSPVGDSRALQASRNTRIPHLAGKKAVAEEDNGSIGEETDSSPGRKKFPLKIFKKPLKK
UniProt Q92621: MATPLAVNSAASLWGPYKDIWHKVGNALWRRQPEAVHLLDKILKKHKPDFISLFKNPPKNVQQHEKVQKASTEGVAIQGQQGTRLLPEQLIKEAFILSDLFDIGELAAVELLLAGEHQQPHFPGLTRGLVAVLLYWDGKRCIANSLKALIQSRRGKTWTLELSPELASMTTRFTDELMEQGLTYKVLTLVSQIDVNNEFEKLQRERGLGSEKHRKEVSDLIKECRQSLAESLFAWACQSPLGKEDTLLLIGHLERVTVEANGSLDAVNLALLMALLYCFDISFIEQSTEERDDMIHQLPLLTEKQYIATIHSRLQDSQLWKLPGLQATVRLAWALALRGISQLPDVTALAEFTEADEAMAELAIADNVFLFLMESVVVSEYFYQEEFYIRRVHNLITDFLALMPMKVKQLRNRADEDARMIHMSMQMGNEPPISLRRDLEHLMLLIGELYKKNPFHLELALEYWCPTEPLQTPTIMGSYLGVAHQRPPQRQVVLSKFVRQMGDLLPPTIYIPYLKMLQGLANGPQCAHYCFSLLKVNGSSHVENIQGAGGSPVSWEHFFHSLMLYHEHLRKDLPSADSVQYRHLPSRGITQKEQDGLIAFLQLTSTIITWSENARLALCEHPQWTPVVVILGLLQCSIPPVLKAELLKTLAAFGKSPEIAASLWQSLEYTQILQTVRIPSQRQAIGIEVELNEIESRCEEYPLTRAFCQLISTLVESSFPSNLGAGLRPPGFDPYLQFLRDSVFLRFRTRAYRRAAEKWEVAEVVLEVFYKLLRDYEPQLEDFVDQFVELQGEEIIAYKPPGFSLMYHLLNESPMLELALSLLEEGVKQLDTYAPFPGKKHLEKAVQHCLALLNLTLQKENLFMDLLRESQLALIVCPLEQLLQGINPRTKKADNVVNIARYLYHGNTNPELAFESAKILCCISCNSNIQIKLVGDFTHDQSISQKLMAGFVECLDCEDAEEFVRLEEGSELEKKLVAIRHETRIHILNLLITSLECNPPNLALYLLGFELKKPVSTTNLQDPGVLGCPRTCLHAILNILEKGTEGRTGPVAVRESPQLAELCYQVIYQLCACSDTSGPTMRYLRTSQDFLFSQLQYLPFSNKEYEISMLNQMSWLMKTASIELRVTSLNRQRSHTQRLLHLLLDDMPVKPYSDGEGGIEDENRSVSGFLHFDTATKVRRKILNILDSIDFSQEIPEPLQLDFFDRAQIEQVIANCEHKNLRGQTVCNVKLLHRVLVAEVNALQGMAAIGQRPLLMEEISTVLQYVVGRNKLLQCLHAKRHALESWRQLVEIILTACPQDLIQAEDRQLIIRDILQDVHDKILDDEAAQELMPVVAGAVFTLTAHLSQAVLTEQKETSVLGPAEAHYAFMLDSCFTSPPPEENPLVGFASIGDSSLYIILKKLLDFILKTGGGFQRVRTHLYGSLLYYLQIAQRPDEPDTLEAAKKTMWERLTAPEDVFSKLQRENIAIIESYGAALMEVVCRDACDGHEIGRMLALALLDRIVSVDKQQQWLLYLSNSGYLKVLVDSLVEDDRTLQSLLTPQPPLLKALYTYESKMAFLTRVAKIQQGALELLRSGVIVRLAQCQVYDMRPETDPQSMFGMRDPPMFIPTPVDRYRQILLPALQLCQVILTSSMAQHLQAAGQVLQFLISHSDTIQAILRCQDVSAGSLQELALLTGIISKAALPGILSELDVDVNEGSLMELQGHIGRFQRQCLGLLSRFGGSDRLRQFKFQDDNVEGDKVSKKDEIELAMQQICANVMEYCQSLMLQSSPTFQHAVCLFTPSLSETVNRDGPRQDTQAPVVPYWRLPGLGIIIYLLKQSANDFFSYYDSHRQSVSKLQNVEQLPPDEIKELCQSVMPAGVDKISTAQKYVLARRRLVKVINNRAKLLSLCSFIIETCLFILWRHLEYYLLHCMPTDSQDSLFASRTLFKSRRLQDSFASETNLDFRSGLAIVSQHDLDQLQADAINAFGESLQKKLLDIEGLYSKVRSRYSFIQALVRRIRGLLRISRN
UniProt Q9BXW9: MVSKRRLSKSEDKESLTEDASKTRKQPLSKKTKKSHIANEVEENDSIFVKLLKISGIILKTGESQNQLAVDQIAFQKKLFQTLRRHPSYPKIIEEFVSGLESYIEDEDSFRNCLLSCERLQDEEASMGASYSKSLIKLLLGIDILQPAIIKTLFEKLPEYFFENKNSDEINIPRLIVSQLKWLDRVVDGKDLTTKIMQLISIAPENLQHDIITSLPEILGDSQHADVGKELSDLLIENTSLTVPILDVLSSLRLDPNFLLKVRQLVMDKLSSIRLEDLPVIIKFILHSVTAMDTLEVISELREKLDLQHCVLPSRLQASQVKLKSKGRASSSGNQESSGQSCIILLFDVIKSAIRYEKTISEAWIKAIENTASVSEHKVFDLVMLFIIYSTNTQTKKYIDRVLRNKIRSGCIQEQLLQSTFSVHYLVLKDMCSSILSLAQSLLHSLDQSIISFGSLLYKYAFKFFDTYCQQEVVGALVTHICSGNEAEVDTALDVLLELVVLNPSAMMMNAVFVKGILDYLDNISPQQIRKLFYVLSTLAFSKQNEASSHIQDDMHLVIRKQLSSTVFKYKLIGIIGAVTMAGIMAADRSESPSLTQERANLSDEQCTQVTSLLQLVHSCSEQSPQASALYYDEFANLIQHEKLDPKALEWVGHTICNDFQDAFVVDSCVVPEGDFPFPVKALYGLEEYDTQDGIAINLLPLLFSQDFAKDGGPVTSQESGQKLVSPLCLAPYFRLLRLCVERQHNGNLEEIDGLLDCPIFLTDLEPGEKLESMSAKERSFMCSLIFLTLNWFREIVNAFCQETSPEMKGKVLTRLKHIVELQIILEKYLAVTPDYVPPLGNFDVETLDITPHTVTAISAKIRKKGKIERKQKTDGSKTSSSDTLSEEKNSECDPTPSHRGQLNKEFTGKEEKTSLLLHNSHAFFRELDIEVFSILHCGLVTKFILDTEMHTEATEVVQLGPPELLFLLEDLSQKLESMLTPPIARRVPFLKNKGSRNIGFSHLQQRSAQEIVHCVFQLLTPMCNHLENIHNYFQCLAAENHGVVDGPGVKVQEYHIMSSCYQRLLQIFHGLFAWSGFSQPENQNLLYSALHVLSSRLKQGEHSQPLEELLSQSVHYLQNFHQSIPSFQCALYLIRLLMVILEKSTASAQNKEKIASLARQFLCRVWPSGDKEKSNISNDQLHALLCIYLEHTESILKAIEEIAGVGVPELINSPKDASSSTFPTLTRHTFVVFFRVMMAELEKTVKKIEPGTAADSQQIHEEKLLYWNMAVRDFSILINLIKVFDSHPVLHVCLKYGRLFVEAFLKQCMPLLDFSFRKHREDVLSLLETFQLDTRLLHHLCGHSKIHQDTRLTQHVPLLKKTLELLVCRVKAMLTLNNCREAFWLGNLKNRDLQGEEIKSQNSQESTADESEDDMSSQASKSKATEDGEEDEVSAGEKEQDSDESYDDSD
UniProt Q9NVI1: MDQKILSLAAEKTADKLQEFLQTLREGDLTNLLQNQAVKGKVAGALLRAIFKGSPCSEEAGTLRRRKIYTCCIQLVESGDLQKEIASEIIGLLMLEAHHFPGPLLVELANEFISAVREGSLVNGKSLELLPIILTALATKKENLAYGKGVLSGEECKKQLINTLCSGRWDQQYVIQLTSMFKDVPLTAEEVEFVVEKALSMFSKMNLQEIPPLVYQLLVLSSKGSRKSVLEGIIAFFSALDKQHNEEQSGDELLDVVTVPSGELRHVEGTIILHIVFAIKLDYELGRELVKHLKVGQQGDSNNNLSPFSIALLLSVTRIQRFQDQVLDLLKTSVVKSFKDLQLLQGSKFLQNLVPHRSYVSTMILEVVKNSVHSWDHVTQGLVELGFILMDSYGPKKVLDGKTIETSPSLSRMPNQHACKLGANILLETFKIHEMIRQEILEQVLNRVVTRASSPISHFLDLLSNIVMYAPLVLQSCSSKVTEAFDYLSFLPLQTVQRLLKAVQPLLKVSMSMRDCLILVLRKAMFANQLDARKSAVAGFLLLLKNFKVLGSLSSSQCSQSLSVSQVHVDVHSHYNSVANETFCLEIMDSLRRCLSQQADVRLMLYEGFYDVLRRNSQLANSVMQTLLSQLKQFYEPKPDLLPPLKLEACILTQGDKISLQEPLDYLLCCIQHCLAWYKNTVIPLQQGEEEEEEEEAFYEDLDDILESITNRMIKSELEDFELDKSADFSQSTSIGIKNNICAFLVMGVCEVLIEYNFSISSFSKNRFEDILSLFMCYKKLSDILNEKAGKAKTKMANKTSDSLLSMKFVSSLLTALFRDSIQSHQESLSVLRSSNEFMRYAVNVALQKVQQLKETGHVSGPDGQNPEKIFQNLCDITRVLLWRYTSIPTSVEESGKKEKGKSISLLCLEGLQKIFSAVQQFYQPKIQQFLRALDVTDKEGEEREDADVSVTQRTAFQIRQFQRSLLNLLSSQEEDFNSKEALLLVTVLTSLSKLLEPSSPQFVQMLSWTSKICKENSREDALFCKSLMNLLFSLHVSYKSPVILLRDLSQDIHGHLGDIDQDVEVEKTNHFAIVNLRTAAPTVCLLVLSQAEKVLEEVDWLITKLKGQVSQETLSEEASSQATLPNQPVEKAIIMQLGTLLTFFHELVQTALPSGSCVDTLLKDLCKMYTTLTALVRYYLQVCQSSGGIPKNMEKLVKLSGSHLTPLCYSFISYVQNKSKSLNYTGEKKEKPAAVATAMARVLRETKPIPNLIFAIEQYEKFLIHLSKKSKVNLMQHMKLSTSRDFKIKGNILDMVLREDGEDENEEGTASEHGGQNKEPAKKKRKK

The target in experiment [2] is endogenous STIM1 (human (endogenous in HEK293)) (UniProt Q13586). The experiment in a line: proximity ligation; Duolink PLA in methanol-fixed HEK293 cells, rabbit anti-STIM1 with a mouse antibody against the partner, endogenous proteins; single antibodies as negative controls.
Experiment [3] has the same target. In words: co-IP; endogenous STIM1 immunoprecipitated with anti-STIM1 antibody and Dynabeads Protein A from 2.5 mg HEK293 whole cell lysate (10 mM NaPO4 pH 7.0, 140 mM NaCl, 0.05% Triton X-100, overnight at 4°C), immunoblot; normal rabbit IgG as control.
Experiment [4] addresses STIM1(382AIAAAA387)-GFP (human) (UniProt Q13586). In words: proximity ligation; Duolink PLA in methanol-fixed cells expressing GFP-tagged STIM1 variants, rabbit anti-FANCD2 and sheep anti-GFP, red dots per nucleus.
Experiment [5] addresses STIM1(Δ551–685)-GFP (human) (UniProt Q13586). Described as above.
Experiment [6] has as its target STIM1-GFP (human STIM1, NP_003147.2) (human) (UniProt Q13586). The experiment is described as above.

These are yes or no findings as the source states them, for the method shown. In cells and extracts the contact can be indirect. Some results given as binding are weak or reduced against the parent protein; the word gives no strength.

On to TELO2 (from UniProt Q9Y4R8 1-837), for which, in experiment [1], the binding result was “binds”.
As for “nuclear pore complex protein NUP205 (from UniProt Q92621 1-2012)”, the binding result in experiment [2], in experiment [1] and in experiment [3] was “binds” throughout.
For the substance KPNB1 (from UniProt Q14974 1-876), in experiment [1], the binding result is given as “binds weakly”.
Still for that read-out and setting: next, XPO1 (from UniProt O14980 1-1071): “binds”.
For the substance IPO8 (from UniProt O15397 1-1037), the binding entry in experiment [2] and in experiment [1] was “binds” throughout.
Take “Fanconi anemia (FA) protein FANCD2 (from UniProt Q9BXW9 1-1451)”: the binding entry in experiment [4], in experiment [5], in experiment [6], in experiment [2], in experiment [1] and in experiment [3] was “binds” each time.
Turning to FANCI (from UniProt Q9NVI1 1-1328), the binding entry in experiment [2], in experiment [1] and in experiment [3] was “binds” each time.

Source of the values: article PMC10954485.
